Values from PubChem BioAssay AID720505 (Drosophila RNAi Screening Center, 2013).
The screen tested about 20,000 reagents; this is a random part of those that have a named target and a result. Of all reagents, about 2,100 (10%) were called active. 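Raw plate signals without normalisation; calls rest on control-based scores that were not deposited; replicate 2 separates called from uncalled poorly.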 Unmarked entries are inactive. A plus sign joins genes that one reagent is predicted to hit. The record does not give: the amount of reagent, the time to read-out.

- Screen: 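Genes needed for store-operated calcium entry in fly cells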 (primary screen)
- Cell system: Drosophila S2R+ cells
- Reagents: long dsRNA against Drosophila genes
- Conditions: thapsigargin (2 µM) in calcium-free buffer to empty internal stores, then 2 mM calcium added back
- Detection: 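Stores emptied by 2 µM thapsigargin without calcium, then 2 mM calcium re-added; fluo-4 fluorescence followed by FLIPR in 384-well plates, per-well averaged endpoint, raw; two screen passes, some wells retested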
- Direction: calcium signal and retest calcium signal: higher = more calcium entry after store depletion
- Hit rule: 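Knock-downs counted as hits when calcium entry dropped relative to STIM1 positive and Rho1 negative controls present on each plate; roughly 1500 genes called, with reductions of differing size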
- Calls: active = called as lowering calcium entry; inactive = not called

gene | PubChem SID | calcium signal, replicate 1 | calcium signal, replicate 2 | retest calcium signal, replicate 1 | retest calcium signal, replicate 2
CG6432 (GeneID 42901) | SID104195831 | 219 | 263 | – | –
sev (GeneID 32039) | SID104200164 | 152 | 86.2 | – | –
tant (GeneID 44785) | SID104191193 | 54.5 | 63.4 | – | –
CG11635 (GeneID 35808) | SID104185867 | 121 | 109 | – | –
AlkB (GeneID 2768870) | SID104198907 | 91.5 | 163 | – | –
CG31259 (GeneID 41010) | SID104194158 | 127 | 152 | – | –
CG4594 (GeneID 34316) | SID104182554 | 108 | 139 | – | –
mahe (GeneID 31707) | SID104197547 | 197 | 168 | – | –
Cyp4d1 (GeneID 31188) | SID104198248 | 95.3 | 133 | – | –
antr (GeneID 246647) | SID104201870 | 84.8 | 85.6 | – | –
CG12702 (GeneID 32993) | SID104199279 | 111 | 126 | – | –
Ccn (GeneID 39972) | SID104189854 | 103 | 92.5 | – | –
Ccn (GeneID 39972) | SID104189855 | 87.8 | 164 | – | –
dod (GeneID 33111) | SID104200369 | 165 | 91.4 | – | –
CG42588 (GeneID 39457) | SID104189612 | 76.2 | 85.2 | – | –
CG42588 (GeneID 39457) | SID104201679 | 72.6 | 107 | – | –
FarO (GeneID 45707) | SID104198267 | 82.4 | 130 | – | –
CG2059 (GeneID 31663) | SID104197995 | 240 | 90 | – | –
srw (GeneID 38525) | SID104187993 | 116 | 117 | – | –
CG4324 (GeneID 37830) | SID104184254 | 50.8 (active) | 189 | – | –
CG11658 (GeneID 39319) | SID104189644 | 63.4 | 78 | – | –
sqd (GeneID 41666) | SID104194952 | 89.9 | 188 | – | –
sqd (GeneID 41666) | SID104196858 | 183 | 166 | – | –
sqd (GeneID 41666) | SID104202311 | 97.5 | 172 | – | –
Ubc87F (GeneID 41682) | SID104196305 | 123 | 198 | – | –
Muc11A (GeneID 32174) | SID104199290 | 105 | 93.5 | 8945 | 109
EMC8-9 (GeneID 37635) | SID104184172 | 144 | 80.9 | – | –
CG1850 (GeneID 35647) | SID104186554 | 130 | 164 | – | –
CG14355 (GeneID 41723) | SID104194610 | 93.7 | 137 | – | –
CdGAPr (GeneID 35267) | SID104183081 | 105 | 89.8 | – | –
e(y)2 (GeneID 45848) | SID104199432 | 75.5 | 87.6 | – | –
CG14420 (GeneID 31284) | SID104197709 | 126 | 154 | – | –
CG9068 (GeneID 36817) | SID104187121 | 122 | 135 | – | –
mRpL55 (GeneID 42290) | SID104194556 | 113 | 132 | – | –
CG10904 (GeneID 37817) | SID104183876 | 184 | 259 | – | –
CG10317 (GeneID 41987) | SID104194021 | 104 | 144 | – | –
CG13449 (GeneID 39695) | SID104189788 | 129 | 155 | – | –
kermit (GeneID 46027) | SID104185866 | 193 | 155 | – | –
CG14562 (GeneID 40439) | SID104191515 | 109 | 233 | – | –
Tapdelta (GeneID 45680) | SID104185738 | 130 | 134 | – | –
dally (GeneID 39013) | SID104191130 | 90.2 | 145 | – | –
dup (GeneID 47121) | SID104186880 | 41.7 (active) | 145 | – | –
Vps16B (GeneID 43521) | SID104195096 | 166 | 191 | – | –
CG4297 (GeneID 33222) | SID104180443 | 96.6 | 99.5 | – | –
CG7430 (GeneID 39988) | SID104190637 | 129 | 113 | – | –
Apc2 (GeneID 42871) | SID104193907 | 195 | 174 | – | –
CG8042 (GeneID 38886) | SID104189468 | 54.7 (active) | 75.9 | – | –
Teh3 (GeneID 50170) | SID104188329 | 81.8 | 41.3 | – | –
Golgin84 (GeneID 42905) | SID104195061 | 176 | 175 | – | –
CG12011 (GeneID 38211) | SID104188011 | 107 | 91 | – | –
CG6310 (GeneID 39237) | SID104190411 | 104 | 115 | – | –
alpha-Man-Ic (GeneID 318624) | SID104201357 | 154 | 90.8 | – | –
Fip1 (GeneID 40569) | SID104191939 | 64.6 (active) | 110 | – | –
CG30377 (GeneID 50252) | SID104186269 | 194 | 155 | – | –
CG30377 (GeneID 50252) | SID104186591 | 129 | 116 | – | –
RpL6 (GeneID 43723) | SID104194115 | 94.5 | 78.7 | – | –
RpL6 (GeneID 43723) | SID104201863 | 70.1 | 184 | – | –
RanBPM (GeneID 36102) | SID104185871 | 123 | 148 | – | –
ppk29 (GeneID 37844) | SID104183997 | 53.2 (active) | 127 | – | –
TAF1B (GeneID 41242) | SID104195793 | 104 | 141 | – | –
HtrA2 (GeneID 41756) | SID104196217 | 120 | 100 | – | –
Atxn7 (GeneID 33423) | SID104180518 | 66.3 (active) | 151 | – | –
Atxn7 (GeneID 33423) | SID104202495 | 102 | 140 | – | –
Cpr67Fa2 (GeneID 39224) | SID104190107 | 89 | 106 | – | –
CG42869 + Sfp93F | SID104193297 | 43.2 (active) | 107 | – | –
nrv1 (GeneID 33952) | SID104183174 | 98.2 | 150 | – | –
CG10035 (GeneID 41511) | SID104193969 | 178 | 158 | – | –
Wnt10 (GeneID 34011) | SID104180782 | 96.7 | 75 | – | –
Wnt10 (GeneID 34011) | SID104182589 | 69.2 (active) | 192 | – | –
Ugt37A2 (GeneID 41573) | SID104195653 | 174 | 89.3 | – | –
CG4743 (GeneID 43101) | SID104195428 | 180 | 110 | – | –
CG4669 (GeneID 38608) | SID104190232 | 75.3 | 115 | – | –
CG31760 (GeneID 34642) | SID104182382 | 75.7 | 107 | – | –
Flo2 (GeneID 32425) | SID104198854 | 75.3 | 102 | – | –
Flo2 (GeneID 32425) | SID104200036 | 91.9 | 107 | – | –
CG15336 (GeneID 31742) | SID104197811 | 206 | 112 | – | –
Brca2 (GeneID 37916) | SID104184011 | 143 | 213 | – | –
Brca2 (GeneID 37916) | SID104184012 | 85.7 | 229 | – | –
Ppox (GeneID 42939) | SID104196825 | 238 | 112 | – | –
nmd (GeneID 44021) | SID104182648 | 79.4 | 136 | – | –
CG4467 (GeneID 42747) | SID104195377 | 199 | 242 | – | –
CG33640 (GeneID 3772680) | SID104181116 | 261 | 93.3 | – | –
CG1889 (GeneID 31928) | SID104197987 | 103 | 119 | – | –

Copied from the list:
sqd (GeneID 41666) [SID104196858], calcium signal, replicate 1 → 183
Entry of CG42869 + Sfp93F [SID104193297] in “calcium signal, replicate 1”: 43.2 (active)
For “calcium signal, replicate 1”, CG6310 (GeneID 39237) [SID104190411] is entered as 104
For “calcium signal, replicate 2”, dup (GeneID 47121) [SID104186880] reads 145 (active)
